Test results published in patent US20050202424A1, “Regulators of biofilm formation and uses thereof” (priority 2001, published 2005).
At least one structure is not confirmed: it was looked up by name or label, or the drawing left a doubt.

Assays:
Format in all cases: cell-based, Pseudomonas aeruginosa
[1] = system: P. aeruginosa strain PA14; assay: Frequency of antibiotic resistant variants after plating overnight cultures of PA14 on antibiotic media; details: LB with 200 μg/ml kanamycin, 37° C., 48 hours
PA14 RSCV [2] = assay: Generation time of RSCV in liquid medium; details: LB containing 200 μg/ml kanamycin
PA14 RSCV [3] = assay: Resistance of PA14 RSCV colonies to antibiotics on plates; details: tetracycline 150 μg/ml; 8 individual colonies
Experimental: To induce such phenotypic variants, an overnight culture of P. aeruginosa strain PA14 (UCBPP-PA14) was inoculated onto Luria-Bertani (LB) containing 200 μg/ml of kanamycin, incubated at 37° C. for 48 hours, at which time, antibiotic resistant rough small variants were isolated. Antibiotic resistant colonies arose at a frequency of 10^−6-10^−7. […] In addition to being resistant to kanamycin, (up to 40 times the susceptibility level of the wild-type), 8 individual PA14 RSCV colonies tested were also resistant to amikacin (30 μg/ml), carbenicillin (300 μg/ml), gentamicin (30 μg/ml), tobramycin (10 μg/ml), and tetracycline (150 μg/ml). Consistent with this latter result, antibiotic resistant variants were also obtained at frequencies of about 10^−7 by plating overnight cultures of PA14 on media containing similar concentrations of the antibiotics mentioned above.

SMILES	frequency of antibiotic resistant colonies [1]	generation time of RSCV versus wild-type (PA14 RSCV [2])	resistance of PA14 RSCV colonies (PA14 RSCV [3])
NC[C@H]1O[C@H](O[C@H]2[C@H](O)[C@@H](O[C@H]3O[C@H](CO)[C@@H](O)[C@H](N)[C@H]3O)[C@H](N)C[C@@H]2N)[C@H](O)[C@@H](O)[C@@H]1O [kanamycin]	10^−6-10^−7	not significantly different	
CN(C)[C@@H]1C(O)=C(C(N)=O)C(=O)[C@@]2(O)C(O)=C3C(=O)c4c(O)cccc4[C@@](C)(O)[C@H]3C[C@@H]12 [tetracycline]			resistant
